Experimental findings from PMC5777814 are described below.

The chains behind the UniProt entries cited, without tags or fusion partners.
UniProt P35222: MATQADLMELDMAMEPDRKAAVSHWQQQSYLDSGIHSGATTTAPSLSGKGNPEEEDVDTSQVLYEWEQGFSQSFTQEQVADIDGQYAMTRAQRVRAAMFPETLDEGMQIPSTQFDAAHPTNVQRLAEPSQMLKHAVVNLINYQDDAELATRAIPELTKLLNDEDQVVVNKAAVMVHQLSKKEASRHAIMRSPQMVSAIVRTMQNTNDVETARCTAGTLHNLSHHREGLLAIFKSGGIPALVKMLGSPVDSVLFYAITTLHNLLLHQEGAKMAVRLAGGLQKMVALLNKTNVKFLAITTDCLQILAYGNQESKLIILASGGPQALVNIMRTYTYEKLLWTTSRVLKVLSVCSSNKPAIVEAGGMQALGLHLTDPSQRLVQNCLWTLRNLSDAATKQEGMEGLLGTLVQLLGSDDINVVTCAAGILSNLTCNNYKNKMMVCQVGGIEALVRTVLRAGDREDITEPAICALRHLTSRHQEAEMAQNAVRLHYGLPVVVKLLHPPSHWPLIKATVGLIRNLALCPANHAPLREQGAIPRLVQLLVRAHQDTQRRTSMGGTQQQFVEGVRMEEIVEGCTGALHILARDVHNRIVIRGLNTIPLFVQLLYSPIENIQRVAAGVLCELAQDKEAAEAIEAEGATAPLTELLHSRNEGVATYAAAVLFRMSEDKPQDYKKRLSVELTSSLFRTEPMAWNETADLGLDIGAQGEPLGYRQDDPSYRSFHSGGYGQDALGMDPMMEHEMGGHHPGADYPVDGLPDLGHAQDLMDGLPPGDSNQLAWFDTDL

These are yes or no findings as the source states them, for the method shown. Binding seen in cells or lysates may run through a third protein. Some results given as binding are weak or reduced against the parent protein; the word gives no strength. For some assays here: Where a sequence is shown, tags or fusion partners need not be part of it.

The target of test [1] is T1, Flag-DVL3 (human) (UniProt Q92997).
T1 sequence: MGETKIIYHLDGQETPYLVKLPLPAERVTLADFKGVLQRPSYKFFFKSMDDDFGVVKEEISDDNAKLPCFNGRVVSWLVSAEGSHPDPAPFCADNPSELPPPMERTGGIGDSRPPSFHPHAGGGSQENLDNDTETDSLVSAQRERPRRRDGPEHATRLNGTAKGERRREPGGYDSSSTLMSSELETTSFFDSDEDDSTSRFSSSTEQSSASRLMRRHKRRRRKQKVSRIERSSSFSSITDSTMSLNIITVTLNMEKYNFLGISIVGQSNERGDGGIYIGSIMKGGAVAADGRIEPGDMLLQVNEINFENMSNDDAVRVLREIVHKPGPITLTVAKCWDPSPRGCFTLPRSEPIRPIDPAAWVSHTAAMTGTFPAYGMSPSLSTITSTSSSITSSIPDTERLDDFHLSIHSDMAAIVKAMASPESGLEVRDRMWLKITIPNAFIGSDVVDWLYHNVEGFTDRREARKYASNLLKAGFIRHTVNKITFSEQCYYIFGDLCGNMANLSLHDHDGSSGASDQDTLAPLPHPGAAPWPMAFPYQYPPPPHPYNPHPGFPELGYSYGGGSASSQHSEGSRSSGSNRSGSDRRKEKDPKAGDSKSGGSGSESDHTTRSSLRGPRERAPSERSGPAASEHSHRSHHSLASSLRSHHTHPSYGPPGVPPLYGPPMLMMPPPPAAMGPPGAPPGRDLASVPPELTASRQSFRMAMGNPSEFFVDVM
Kind of test: co-IP; HCT-8/VCR cells cotransfected with pcDNA3.1-Flag-DVL and pcDNA3.1-HA-β-catenin for 72 h, nuclear fraction; IP with anti-Flag, blot with anti-HA; IgG as negative control.

In test [2] the target is T2, Flag-DVL1 (UniProt O14640).
T2 sequence: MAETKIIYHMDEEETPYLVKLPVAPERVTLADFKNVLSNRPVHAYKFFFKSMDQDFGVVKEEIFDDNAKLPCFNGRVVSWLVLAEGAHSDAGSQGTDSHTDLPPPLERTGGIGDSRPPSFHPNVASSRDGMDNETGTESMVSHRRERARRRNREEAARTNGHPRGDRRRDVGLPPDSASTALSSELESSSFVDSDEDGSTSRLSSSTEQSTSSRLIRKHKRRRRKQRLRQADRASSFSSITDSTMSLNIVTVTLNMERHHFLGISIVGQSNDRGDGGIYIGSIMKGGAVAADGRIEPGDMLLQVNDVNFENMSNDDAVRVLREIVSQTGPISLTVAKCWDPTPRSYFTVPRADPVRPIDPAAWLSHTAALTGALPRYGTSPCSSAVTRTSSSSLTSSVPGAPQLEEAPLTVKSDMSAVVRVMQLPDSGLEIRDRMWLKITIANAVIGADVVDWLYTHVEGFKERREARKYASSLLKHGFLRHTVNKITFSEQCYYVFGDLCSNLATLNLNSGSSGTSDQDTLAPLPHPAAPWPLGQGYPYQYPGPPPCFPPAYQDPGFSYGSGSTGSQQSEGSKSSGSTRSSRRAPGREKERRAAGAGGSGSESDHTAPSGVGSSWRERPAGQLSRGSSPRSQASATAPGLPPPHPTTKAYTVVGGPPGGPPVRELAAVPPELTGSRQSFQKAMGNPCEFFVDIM
The description is as above.

The target in test [3] is T3, Dishevelled3 (DVL3), endogenous (human (endogenous in HCT-8/VCR)) (UniProt Q92997).
T3 sequence: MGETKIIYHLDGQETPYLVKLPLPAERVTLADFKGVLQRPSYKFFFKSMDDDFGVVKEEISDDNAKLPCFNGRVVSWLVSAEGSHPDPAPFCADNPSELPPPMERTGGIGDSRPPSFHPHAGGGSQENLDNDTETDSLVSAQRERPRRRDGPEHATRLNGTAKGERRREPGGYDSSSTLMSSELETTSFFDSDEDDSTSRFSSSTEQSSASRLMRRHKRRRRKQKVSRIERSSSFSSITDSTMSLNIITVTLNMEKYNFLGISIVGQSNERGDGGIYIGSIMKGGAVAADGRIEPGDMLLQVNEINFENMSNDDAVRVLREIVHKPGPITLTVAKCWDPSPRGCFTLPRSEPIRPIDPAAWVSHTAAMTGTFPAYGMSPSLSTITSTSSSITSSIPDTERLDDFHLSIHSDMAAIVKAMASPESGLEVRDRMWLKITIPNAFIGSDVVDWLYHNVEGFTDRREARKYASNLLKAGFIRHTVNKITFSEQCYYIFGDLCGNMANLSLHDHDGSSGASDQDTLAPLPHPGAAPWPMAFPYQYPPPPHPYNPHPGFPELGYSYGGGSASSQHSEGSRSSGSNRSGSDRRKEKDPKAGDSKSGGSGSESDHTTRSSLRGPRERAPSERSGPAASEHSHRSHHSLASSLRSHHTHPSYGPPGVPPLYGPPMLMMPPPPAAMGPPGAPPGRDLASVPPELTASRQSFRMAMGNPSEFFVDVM
Kind of test: co-IP; endogenous proteins, total cellular or nuclear fractions of untransfected HCT-8/VCR cells; IP with anti-DVL1, anti-DVL2, anti-DVL3 or anti-β-catenin, protein A+G agarose, 4°C; both directions; IgG as negative control.

In test [4] the target is T4, Dishevelled1 (DVL1), endogenous (human (endogenous in HCT-8/VCR)) (UniProt O14640).
T4 sequence: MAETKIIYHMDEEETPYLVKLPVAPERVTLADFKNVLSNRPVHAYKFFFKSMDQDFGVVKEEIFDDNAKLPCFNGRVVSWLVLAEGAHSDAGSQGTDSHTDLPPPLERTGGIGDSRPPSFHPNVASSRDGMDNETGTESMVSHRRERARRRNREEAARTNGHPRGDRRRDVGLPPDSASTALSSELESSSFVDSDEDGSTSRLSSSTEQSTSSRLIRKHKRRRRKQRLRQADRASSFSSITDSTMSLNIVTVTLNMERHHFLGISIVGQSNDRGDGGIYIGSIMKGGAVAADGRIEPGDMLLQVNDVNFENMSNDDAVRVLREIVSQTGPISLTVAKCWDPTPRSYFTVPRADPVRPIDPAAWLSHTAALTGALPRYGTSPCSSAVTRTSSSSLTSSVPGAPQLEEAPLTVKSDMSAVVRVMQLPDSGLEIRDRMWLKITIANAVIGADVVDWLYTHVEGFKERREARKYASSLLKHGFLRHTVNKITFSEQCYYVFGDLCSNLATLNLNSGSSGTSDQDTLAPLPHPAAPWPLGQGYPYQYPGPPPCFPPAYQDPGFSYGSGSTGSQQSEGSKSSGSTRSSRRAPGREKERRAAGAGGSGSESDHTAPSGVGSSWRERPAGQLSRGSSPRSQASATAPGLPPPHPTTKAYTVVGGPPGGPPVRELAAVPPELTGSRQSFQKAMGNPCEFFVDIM
Described as above.

Test [5] has as its target β-catenin, endogenous (human (endogenous in HCT-8 and HCT-8/VCR)) (UniProt P35222). The description is as above.

On to “HA-β-catenin (from UniProt P35222 1-781)”, for which the binding result in test [1] and in test [2] was “binds” each time.

Take “β-catenin, endogenous (from UniProt P35222 1-781)”: the binding result in test [3] and in test [4] was “binds” each time.

B1: Dishevelled1 (DVL1), endogenous (protein, UniProt O14640 1-695)
chain: MAETKIIYHMDEEETPYLVKLPVAPERVTLADFKNVLSNRPVHAYKFFFKSMDQDFGVVKEEIFDDNAKLPCFNGRVVSWLVLAEGAHSDAGSQGTDSHTDLPPPLERTGGIGDSRPPSFHPNVASSRDGMDNETGTESMVSHRRERARRRNREEAARTNGHPRGDRRRDVGLPPDSASTALSSELESSSFVDSDEDGSTSRLSSSTEQSTSSRLIRKHKRRRRKQRLRQADRASSFSSITDSTMSLNIVTVTLNMERHHFLGISIVGQSNDRGDGGIYIGSIMKGGAVAADGRIEPGDMLLQVNDVNFENMSNDDAVRVLREIVSQTGPISLTVAKCWDPTPRSYFTVPRADPVRPIDPAAWLSHTAALTGALPRYGTSPCSSAVTRTSSSSLTSSVPGAPQLEEAPLTVKSDMSAVVRVMQLPDSGLEIRDRMWLKITIANAVIGADVVDWLYTHVEGFKERREARKYASSLLKHGFLRHTVNKITFSEQCYYVFGDLCSNLATLNLNSGSSGTSDQDTLAPLPHPAAPWPLGQGYPYQYPGPPPCFPPAYQDPGFSYGSGSTGSQQSEGSKSSGSTRSSRRAPGREKERRAAGAGGSGSESDHTAPSGVGSSWRERPAGQLSRGSSPRSQASATAPGLPPPHPTTKAYTVVGGPPGGPPVRELAAVPPELTGSRQSFQKAMGNPCEFFVDIM
As to B1, the binding entry in test [5] is “binds”.
